In assay [1] the target is SV40 Small T antigen, C-terminal Flag-HA tagged (CTAP-SV40 ST) (SV40) (UniProt P03081). Put plainly: co-IP.
The target of assay [2] is JCPyV-Mad1 Small T antigen, C-terminal Flag-HA tagged (JCPyV, strain Mad1) (UniProt P03083). The assay can be described thus: co-IP.

Amino acid sequences for entries named in this document (tags omitted).
UniProt P03081, whole entry: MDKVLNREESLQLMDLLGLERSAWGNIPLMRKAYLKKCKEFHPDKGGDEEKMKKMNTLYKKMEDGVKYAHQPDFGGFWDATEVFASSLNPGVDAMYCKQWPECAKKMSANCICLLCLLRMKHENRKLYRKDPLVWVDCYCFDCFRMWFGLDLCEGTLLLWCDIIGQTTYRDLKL
UniProt P03083, whole entry: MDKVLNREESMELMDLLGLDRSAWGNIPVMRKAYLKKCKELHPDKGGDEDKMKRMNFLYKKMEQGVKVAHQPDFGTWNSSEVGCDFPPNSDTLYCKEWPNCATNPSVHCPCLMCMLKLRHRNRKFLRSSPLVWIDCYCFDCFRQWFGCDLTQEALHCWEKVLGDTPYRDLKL
UniProt O95819, whole entry: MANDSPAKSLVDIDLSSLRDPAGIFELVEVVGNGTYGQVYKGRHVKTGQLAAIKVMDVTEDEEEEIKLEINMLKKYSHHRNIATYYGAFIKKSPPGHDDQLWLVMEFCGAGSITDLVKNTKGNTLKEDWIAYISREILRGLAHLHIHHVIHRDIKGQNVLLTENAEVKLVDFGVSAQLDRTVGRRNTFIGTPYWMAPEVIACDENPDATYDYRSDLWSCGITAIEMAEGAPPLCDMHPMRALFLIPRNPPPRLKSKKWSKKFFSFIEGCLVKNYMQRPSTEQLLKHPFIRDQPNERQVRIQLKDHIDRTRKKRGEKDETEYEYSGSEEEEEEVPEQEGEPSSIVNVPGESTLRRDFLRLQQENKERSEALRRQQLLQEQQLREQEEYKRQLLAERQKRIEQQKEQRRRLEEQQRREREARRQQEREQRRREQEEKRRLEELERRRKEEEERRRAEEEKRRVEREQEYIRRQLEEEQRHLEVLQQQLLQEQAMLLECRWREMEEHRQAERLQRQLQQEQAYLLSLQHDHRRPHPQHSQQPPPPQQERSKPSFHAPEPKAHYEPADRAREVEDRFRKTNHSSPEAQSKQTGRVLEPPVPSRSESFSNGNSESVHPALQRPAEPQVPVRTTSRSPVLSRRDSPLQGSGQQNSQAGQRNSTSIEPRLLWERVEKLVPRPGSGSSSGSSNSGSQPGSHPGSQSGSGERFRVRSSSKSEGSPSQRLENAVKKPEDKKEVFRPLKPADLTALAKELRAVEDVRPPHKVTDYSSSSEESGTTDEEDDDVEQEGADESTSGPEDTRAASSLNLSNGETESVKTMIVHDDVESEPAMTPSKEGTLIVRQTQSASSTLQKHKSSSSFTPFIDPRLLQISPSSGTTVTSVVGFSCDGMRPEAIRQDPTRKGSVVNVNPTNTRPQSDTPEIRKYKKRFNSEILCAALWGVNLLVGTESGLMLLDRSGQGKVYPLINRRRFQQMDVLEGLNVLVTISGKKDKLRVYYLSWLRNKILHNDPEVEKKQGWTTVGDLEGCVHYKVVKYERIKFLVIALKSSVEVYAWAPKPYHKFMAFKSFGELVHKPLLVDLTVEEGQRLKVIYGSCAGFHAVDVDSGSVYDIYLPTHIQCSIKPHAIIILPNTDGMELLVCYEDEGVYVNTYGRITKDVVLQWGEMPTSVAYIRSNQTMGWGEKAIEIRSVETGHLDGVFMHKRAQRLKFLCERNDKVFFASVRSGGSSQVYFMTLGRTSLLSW
UniProt P67775, whole entry: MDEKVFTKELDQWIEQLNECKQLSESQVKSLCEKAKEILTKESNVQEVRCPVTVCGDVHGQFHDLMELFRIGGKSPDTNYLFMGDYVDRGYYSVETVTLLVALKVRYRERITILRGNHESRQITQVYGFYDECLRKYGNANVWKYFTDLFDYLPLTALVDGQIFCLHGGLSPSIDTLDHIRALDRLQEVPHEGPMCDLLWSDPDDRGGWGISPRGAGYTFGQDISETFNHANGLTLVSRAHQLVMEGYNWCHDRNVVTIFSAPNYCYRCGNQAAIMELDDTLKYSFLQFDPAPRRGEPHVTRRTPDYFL
UniProt Q5VSL9, whole entry: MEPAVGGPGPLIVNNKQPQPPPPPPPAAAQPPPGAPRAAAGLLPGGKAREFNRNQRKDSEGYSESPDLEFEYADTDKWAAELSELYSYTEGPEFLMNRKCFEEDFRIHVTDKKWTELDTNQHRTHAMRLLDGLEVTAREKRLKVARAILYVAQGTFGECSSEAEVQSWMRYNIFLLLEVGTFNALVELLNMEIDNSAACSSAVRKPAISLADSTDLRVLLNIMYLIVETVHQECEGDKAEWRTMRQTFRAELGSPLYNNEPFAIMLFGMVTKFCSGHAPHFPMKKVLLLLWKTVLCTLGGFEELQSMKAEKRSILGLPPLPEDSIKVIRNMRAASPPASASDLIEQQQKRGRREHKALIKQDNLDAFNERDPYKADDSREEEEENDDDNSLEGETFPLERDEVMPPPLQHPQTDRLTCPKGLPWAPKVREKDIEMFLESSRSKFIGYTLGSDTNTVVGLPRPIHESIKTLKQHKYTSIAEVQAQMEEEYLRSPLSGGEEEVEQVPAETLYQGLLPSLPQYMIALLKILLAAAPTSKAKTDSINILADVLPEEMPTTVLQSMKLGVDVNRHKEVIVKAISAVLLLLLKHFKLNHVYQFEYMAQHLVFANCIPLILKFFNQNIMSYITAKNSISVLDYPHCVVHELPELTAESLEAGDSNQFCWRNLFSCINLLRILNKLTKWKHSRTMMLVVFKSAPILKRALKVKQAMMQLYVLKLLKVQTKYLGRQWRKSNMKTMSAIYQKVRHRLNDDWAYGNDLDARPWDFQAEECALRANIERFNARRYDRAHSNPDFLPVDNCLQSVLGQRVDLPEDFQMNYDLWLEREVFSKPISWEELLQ
UniProt P30153, whole entry: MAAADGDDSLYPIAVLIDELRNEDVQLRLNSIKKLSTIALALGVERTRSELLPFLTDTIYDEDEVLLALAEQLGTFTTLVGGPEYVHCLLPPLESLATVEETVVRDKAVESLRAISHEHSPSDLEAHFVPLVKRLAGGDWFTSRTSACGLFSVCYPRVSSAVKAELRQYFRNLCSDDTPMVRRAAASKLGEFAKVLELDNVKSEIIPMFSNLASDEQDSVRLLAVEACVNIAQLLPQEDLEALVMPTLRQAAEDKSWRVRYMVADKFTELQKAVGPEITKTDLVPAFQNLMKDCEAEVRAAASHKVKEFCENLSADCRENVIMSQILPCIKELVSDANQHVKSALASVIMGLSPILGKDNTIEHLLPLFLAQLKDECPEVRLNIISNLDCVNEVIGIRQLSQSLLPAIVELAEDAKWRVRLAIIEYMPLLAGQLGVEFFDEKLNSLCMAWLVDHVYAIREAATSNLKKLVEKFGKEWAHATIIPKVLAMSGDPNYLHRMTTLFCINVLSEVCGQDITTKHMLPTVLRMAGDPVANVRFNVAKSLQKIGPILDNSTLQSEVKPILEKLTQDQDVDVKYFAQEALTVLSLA

These are yes or no findings as the source states them, for the method shown. In cells and extracts the contact can be indirect. Some results given as binding are weak or reduced against the parent protein; the word gives no strength.

On to “mitogen-activated protein kinase kinase kinase kinase 4 (MAP4K4), endogenous (from UniProt O95819 1-1239) (enzyme)”, for which the binding entry is listed as “binds” in assay [1] and “no binding” in assay [2].

In the case of “PP2A Cα subunit, endogenous (from UniProt P67775 1-309) (enzyme)”, the binding entry in assay [1] and in assay [2] was “binds” in each case.

As for “STRIP1, endogenous (from UniProt Q5VSL9 1-837)”, the binding result in assay [1] and in assay [2] was “binds” each time.

With “PP2A Aα subunit (PPP2R1A), endogenous (from UniProt P30153 1-589)”, the binding result in assay [1] is recorded as “binds”.

B1: STRN3, endogenous (protein, UniProt Q13033 1-797)
chain: MDELAGGGGGGPGMAAPPRQQQGPGGNLGLSPGGNGAAGGGGPPASEGAGPAAGPELSRPQQYTIPGILHYIQHEWARFEMERAHWEVERAELQARIAFLQGERKGQENLKKDLVRRIKMLEYALKQERAKYHKLKYGTELNQGDLKMPTFESEETKDTEAPTAPQNSQLTWKQGRQLLRQYLQEVGYTDTILDVRSQRVRSLLGLSNSEPNGSVETKNLEQILNGGESPKQKGQEIKRSSGDVLETFNFLENADDSDEDEENDMIEGIPEGKDKHRMNKHKIGNEGLAADLTDDPDTEEALKEFDFLVTAEDGEGAGEARSSGDGTEWDKDDLSPTAEVWDVDQGLISKLKEQYKKERKGKKGVKRANRTKLYDMIADLGDDELPHIPSGIINQSRSASTRMTDHEGARAEEAEPITFPSGGGKSFIMGSDDVLLSVLGLGDLADLTVTNDADYSYDLPANKDAFRKTWNPKYTLRSHFDGVRALAFHPVEPVLVTASEDHTLKLWNLQKTVPAKKSASLDVEPIYTFRAHIGPVLSLAISSNGEQCFSGGIDATIQWWNMPSPSVDPYDTYEPNVLAGTLVGHTDAVWGLAYSGIKNQLLSCSADGTVRLWNPQEKLPCICTYNGDKKHGIPTSVDFIGCDPAHMVTSFNTGSAVIYDLETSQSLVILSSQVDSGLQSNNHINRVVSHPTLPVTITAHEDRHIKFFDNKTGKMIHSMVAHLDAVTSLAVDPNGIYLMSGSHDCSIRLWNLDSKTCVQEITAHRKKLDESIYDVAFHSSKAYIASAGADALAKVFV
With B1, the binding entry in assay [2] is listed as “binds”.
